# The other results are listed elsewhere or left out. Further columns of the screen follow, without active or inactive calls. The list favours compounds with an active or inconclusive main result. The note in brackets gives the kind of curve behind each potency; many fits are weak.
# Assay: qHTS Assay for Lipid Storage Modulators in Drosophila S3 Cells;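 on cell number change: cells counted by Cell Tracker Red CMTPX staining in the red channel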
# Conditions: BODIPY lipid droplet fluorescence, 18-24 h; for cell number change: measured here: cell count max response, cells fed with added oleic acid
# Procedure, shortened: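 Drosophila S3 cells got compounds at several concentrations plus oleic acid (400 uM solution). Laser-scanning cytometry with 488 nm excitation read lipid droplets at 500-530 nm and cells at 575-640 nm. Percent activity was relative to 20 uM Triacsin C.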
# [1] = measured here: lipid fluorescence (Fed channel) AC50, cells fed with added oleic acid
# [2] = measured here: cell number channel AC50, cells fed with added oleic acid
SMILES,cell number change,AC50 [1],AC50 [2]
O=C(Nc1nn[nH]n1)c1cccc([N+](=O)[O-])c1,-28.6%,"0.164 µM [falling, full curve, poor fit]",–
O=C(COc1ccc(Cl)cc1)Nc1ccccc1N1CCOCC1,4.14%,"0.092 µM [rising, full curve, poor fit]",–
CC1CCC(n2c(=S)[nH]c3ccccc3c2=O)CC1 (stereo unspecified),-31.3%,–,"23.1 µM [falling, single point]"
CCOc1ccc(NC(=O)Cc2ccccc2)cc1,18.8%,"16.4 µM [rising, partial curve, poor fit]",–
CCOC(=O)C1CCCN(S(=O)(=O)c2ccc3c4c(cccc24)C(=O)N3CC)C1 (stereo unspecified),-15.4%,"0.58 µM [falling, single point]",–
C/C(=N\NC(=O)c1ccc(Cl)c(Cl)c1)c1cccc(NC(=O)C(C)C)c1,160%,"29.1 µM [rising, single point]","29.1 µM [rising, single point]"
CCN(CC)c1ccc(C=Nc2ccc(N(C)C)cc2)c(O)c1,42.4%,"29.1 µM [falling, single point]","29.1 µM [rising, single point]"
O=C(CCSc1nnc(-c2ccco2)o1)Nc1ccc(Cl)cc1,-7.51%,"0.116 µM [falling, full curve, poor fit]","0.206 µM [falling, full curve, poor fit]"
O=C(/C=C/c1ccccc1Cl)NCCc1ccc(F)cc1,32%,"4.61 µM [rising, partial curve]","3.26 µM [rising, partial curve]"
O=C(NC(=S)Nc1cccc2c(O)cccc12)c1ccco1,-33.8%,–,"16.4 µM [falling, single point]"
CC(=O)c1ccc(-n2c(=O)[nH]c(=O)c3c(N)c(C(=O)c4ccc(Cl)cc4)sc32)cc1,-5.84%,–,–
O=C1/C(=C/c2ccccc2)SC(=S)N1CCCC(=O)N1CCCCC1CCO (stereo unspecified),–,"29.1 µM [falling, single point]",–
CC(=O)Oc1ccc2c(c1)Oc1cc(OC(C)=O)ccc1C21OC(=O)c2ccccc21,-95.3%,"0.184 µM [falling, full curve]","0.58 µM [falling, full curve]"
CCCc1cc(=O)n2[nH]cc(-c3ccc(Cl)cc3)c2n1,-39.9%,–,"16.4 µM [falling, single point]"
Cc1ccc(N2CC(C(=O)Nc3ccccc3N3CCCC3)CC2=O)cc1 (stereo unspecified),9.99%,"2.59 µM [rising, partial curve, poor fit]",–
Cc1cc(-c2ccc(/C=N/n3cnnc3)o2)ccc1Cl,-8.68%,"29.1 µM [falling, single point]",–
CCOc1cc(/C=C2\C(=N)N3N=CSC3=NC2=O)ccc1OS(=O)(=O)c1ccccc1,–,"11.6 µM [falling, single point]",–
Cc1cccc(C)c1NC(=O)COC(=O)c1cc(=O)[nH]c2ccccc12,30.6%,"32.6 µM [rising, partial curve, poor fit]",–
Cc1ccc(NC(=O)Nc2cc(S(=O)(=O)N(C)C)ccc2C)cc1,19.9%,"0.651 µM [rising, single point]",–
COc1ccc(Cc2nnc(NC(=O)c3ccccc3)s2)cc1OC,-17.9%,"0.58 µM [falling, single point]","0.731 µM [falling, partial curve]"

SMILES,cell number change,AC50 [1],AC50 [2]
COc1ccc(C2C(C(=O)N3CCN(c4ccccn4)CC3)CCC(=O)N2c2ccc(OC)cc2)cc1 (stereo unspecified),76.9%,"3.66 µM [rising, partial curve]","7.31 µM [rising, partial curve]"
COc1ccc(S(=O)(=O)N(C)CC(=O)N2CCN(C)CC2)cc1Cl,2.48%,"29.1 µM [falling, single point]",–
CCCn1c(C2CCCN2c2nc(-c3ccc(C)cc3)cs2)nc2ccccc21 (stereo unspecified),-7.49%,–,–
CC(C)Sc1nnc(NC(=O)c2ccco2)s1,20.3%,–,–
COc1ccc2oc(=O)c(C(=O)N3CCN(C(=O)c4ccccc4)CC3)cc2c1,9.21%,–,–
O=C(CC(=O)Nc1ccccc1F)Nc1ccccc1F,17%,"0.0366 µM [rising, full curve, poor fit]",–
Cc1cccc(-c2noc(CN(C)S(=O)(=O)c3cc(Cl)ccc3Cl)n2)c1,–,"0.82 µM [rising, full curve]","1.03 µM [rising, full curve]"
CC(C)C(=O)Nc1ccc(C(=O)NN2C(=O)c3ccccc3C2=O)cc1,14.6%,"0.092 µM [falling, partial curve, poor fit]",–
CC(=O)NC1(c2nnnn2CCOC(=O)Nc2ccc(Cl)cc2)CCCCC1,9.7%,"2.31 µM [rising, single point]",–
CCc1ccc(OCC(=O)NN2Cc3ccccc3C2=N)cc1,–,"0.517 µM [falling, partial curve]","0.58 µM [falling, single point]"
CC(C)COc1nc2ccccc2c(=O)n1OCC(=O)O,20.2%,"32.6 µM [rising, single point]",–
O=C(NCc1ccc(Cl)cc1)C1CCCCN1S(=O)(=O)c1ccccc1 (stereo unspecified),30.4%,"6.51 µM [rising, single point]",–
COc1ccc(N2CCN(C(CNC(C)=O)c3ccco3)CC2)cc1 (stereo unspecified),-12%,–,–
O=C(Nc1ccncc1)Nc1ccccc1Cl,42.8%,–,"14.6 µM [rising, partial curve, poor fit]"
CC(=O)C(Cc1cnc(Cl)s1)(Cc1cnc(Cl)s1)C(C)=O,19.9%,"4.11 µM [falling, partial curve, poor fit]","3.66 µM [falling, partial curve, poor fit]"
CCOc1ccc(NC(=O)CC(=O)Nc2ccc(OCC)cc2)cc1,33%,"23.1 µM [rising, partial curve, poor fit]","29.1 µM [rising, partial curve]"
CC(=O)c1ccc(N2CCN(C(=O)c3cccs3)C(C)C2)c(F)c1 (stereo unspecified),-44.7%,"2.31 µM [falling, single point]","29.1 µM [falling, single point]"
COc1ccc(CC(=O)Oc2cc(C)ccc2C)cc1,29.1%,"29.1 µM [rising, single point]",–
O=C(CN1C(=O)NC2NC(=O)NC21)N/N=C/c1ccccc1O (stereo unspecified),-13.2%,"0.00461 µM [falling, full curve, poor fit]",–
N#C/C(=C\C=C\c1ccccc1[N+](=O)[O-])c1nc(-c2ccc3c(c2)OCO3)cs1,–,"0.13 µM [rising, full curve, poor fit]",–

# Part of the list above, with bars between the fields.
SMILES | cell number change | AC50 [1] | AC50 [2]
Cc1cccc(C)c1NC(=O)COC(=O)c1cc(=O)[nH]c2ccccc12 | 30.6% | 32.6 µM [rising, partial curve, poor fit] | –
CCOc1ccc(NC(=O)CC(=O)Nc2ccc(OCC)cc2)cc1 | 33% | 23.1 µM [rising, partial curve, poor fit] | 29.1 µM [rising, partial curve]

# More entries follow.

SMILES,cell number change,AC50 [1],AC50 [2]
O=[N+]([O-])c1ccc(C2=NN(c3ccccc3)C(c3ccco3)C2)cc1 (stereo unspecified),-95.4%,"0.326 µM [falling, full curve]","1.64 µM [falling, full curve]"
CCn1c2ccccc2c2cc([N+](=O)[O-])ccc21,56.3%,"29.1 µM [rising, single point]","20.6 µM [rising, single point]"
CCCCC(=O)Nc1ccc(Br)cn1,-34.4%,"0.731 µM [falling, full curve, poor fit]","0.92 µM [falling, full curve]"
CC1(C)Nc2ccccc2N(CCC(=O)N2CCOCC2)C1=O,-0.698%,"0.0058 µM [falling, full curve, poor fit]",–
CC(C)(C)C(=O)CSc1ncccn1,22%,–,–
COc1cc(/C=N/NC(=O)c2cccnc2)ccc1OCC(=O)Nc1ccc(C)cc1,16.7%,"0.411 µM [rising, full curve]","3.66 µM [rising, single point]"
CC1(/[N+]([O-])=C\c2ccccc2F)CCCCC1=O (stereo unspecified),-22.2%,"0.00461 µM [falling, full curve, poor fit]",–
COc1ccc2nc(SCC(=O)Nc3ccccc3C)[nH]c2c1,-7.05%,"0.259 µM [falling, partial curve, poor fit]",–
CCc1c(C)sc2nc(SCC(=O)Nc3cc(C)on3)n(CCOC)c(=O)c12,24.3%,"1.3 µM [rising, partial curve]",–
CCCc1cc(=O)[nH]c(SCC(=O)Nc2ccc(C)cc2)n1,-2.02%,–,"6.51 µM [falling, single point]"
COC(=O)[C@@H](NC(=O)Nc1ccccc1F)C(C)C,5.38%,–,–
COc1ccc(CCNC(=O)c2cc(=O)c3ccc(C)cc3o2)cc1OC,6.83%,"6.51 µM [rising, single point]",–
Cc1ccc(C(=O)N2CCN(S(=O)(=O)c3ccc(C)cc3)CC2)cc1,-42.1%,"2.59 µM [falling, full curve]","3.66 µM [falling, full curve]"
O=C(CCNC(=O)N1CC(=O)Nc2ccccc21)Nc1ccc(Cl)cc1,-7.03%,"0.0092 µM [falling, full curve, poor fit]",–
CSc1nsc(/C=C/Nc2ccc(C(=O)O)cc2)c1C#N,-16.6%,"29.1 µM [falling, single point]",–
Cc1ccc(OCCCCN2CCCCC2)cc1,7.37%,–,"0.461 µM [rising, partial curve, poor fit]"
CC(C)(C)NC(=O)c1nc2ccccc2s1,-4.41%,"2.59 µM [rising, partial curve]",–
COc1ccc(NC(=O)Nc2ccc(F)cc2)cn1,22.2%,"6.51 µM [rising, single point]",–

# Grouped by structure, the compounds so far containing a COOH group.
SMILES,cell number change,AC50 [1],AC50 [2]
CC(C)COc1nc2ccccc2c(=O)n1OCC(=O)O,20.2%,"32.6 µM [rising, single point]",–
CSc1nsc(/C=C/Nc2ccc(C(=O)O)cc2)c1C#N,-16.6%,"29.1 µM [falling, single point]",–

# From PubChem BioAssay AID2685 (National Center for Advancing Translational Sciences (NCATS), 2010)
